Laboratory results: PubChem BioAssay AID504808 (Drosophila RNAi Screening Center, 2011)

Aim: 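Fly genes required to hold E2F transcription in check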 (primary screen)
Cells: Drosophila S2 cells
Reagent: long dsRNA against Drosophila genes
Read-out: 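Dual luciferase plate measurements; E2F-specific signal taken as firefly over Renilla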
Reading the numbers: E2F firefly: higher = more E2F reporter activity; Renilla normaliser: higher = more normaliser reporter signal
Rule for the call: 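a knock-down counted as active when the firefly/Renilla E2F signal rose above 50%, a threshold chosen arbitrarily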
The screen tested about 21,000 reagents; this is a random part of those with a known target gene and a result. Over the whole deposit, 18 (0.084%) are marked active. 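Raw counts without plate normalisation, one of two replicates; the ratio scores behind the calls were not deposited.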 Entries without a mark were called inactive. Names joined by + are all predicted targets of the reagent. Not given: the amount of reagent, the time to read-out.

| target | dsRNA | E2F firefly, rep 1 | Renilla normaliser, rep 1 |
| --- | --- | --- | --- |
| Rsod (GeneID 43586) | DRSC15424 | 1.14e5 | 6959 |
| phol (GeneID 39095) | DRSC10367 | 74036 | 3383 |
| Dic1 (GeneID 41640) | DRSC14125 | 74769 | 3210 |
| Sec20 (GeneID 40724) | DRSC12295 | 1.48e5 | 6450 |
| Ca-alpha1D (GeneID 34950) | DRSC03284 | 71097 | 3675 |
| CG7772 (GeneID 32776) | DRSC20056 | 1.57e5 | 5395 |
| Hpf1 (GeneID 40718) | DRSC12202 | 67307 | 3797 |
| maf-S (GeneID 37336) | DRSC07348 | 87977 | 4019 |
| Ctr1C (GeneID 43668) | DRSC15089 | 1.40e5 | 7998 |
| CG10508 (GeneID 40342) | DRSC11612 | 92343 | 4169 |
| CG10508 (GeneID 40342) | DRSC11613 | 1.31e5 | 6926 |
| mei-217 + mei-218 | DRSC20349 | 2.45e5 | 7510 |
| CG10904 (GeneID 37817) | DRSC04084 | 1.03e5 | 4108 |
| Orp8 (GeneID 42412) | DRSC15110 | 1.55e5 | 7291 |
| Orp8 (GeneID 42412) | DRSC15712 | 66057 | 3224 |
| uri (GeneID 37924) | DRSC04111 | 83978 | 4179 |
| Dhit (GeneID 37037) | DRSC07411 | 72936 | 3546 |
| Hesr (GeneID 32800) | DRSC19965 | 1.68e5 | 6555 |
| emp (GeneID 37999) | DRSC04019 | 1.42e5 | 6572 |
| emp (GeneID 37999) | DRSC04683 | 83640 | 3714 |
| Evi5 (GeneID 32088) | DRSC19421 | 1.03e5 | 5243 |
| raptor (GeneID 31543) | DRSC18359 | 55278 | 3891 |
| RunxA (GeneID 4379817) | DRSC20400 | 73502 | 2571 |
| RunxA (GeneID 4379817) | DRSC20498 | 72269 | 5342 |
| RunxA (GeneID 4379817) | DRSC20524 | 1.42e5 | 8029 |
| Spn27A (GeneID 45815) | DRSC03608 | 1.56e5 | 5206 |
| CG10311 (GeneID 41984) | DRSC14228 | 1.24e5 | 5795 |
| OS9 + Hf | DRSC03392 | 86043 | 3667 |
| sens (GeneID 45328) | DRSC09263 | 79825 | 3446 |
| Fer2LCH (GeneID 44965) | DRSC16672 | 1.16e5 | 5540 |
| CG13053 (GeneID 50274) | DRSC09934 | 1.34e5 | 8216 |
| CG5543 (GeneID 37768) | DRSC04511 | 73309 | 2883 |
| E(spl)m2-BFM (GeneID 43155) | DRSC16991 | 55098 | 5232 |
| Nadk2 (GeneID 35918) | DRSC07072 | 3101 | 202 |
| CG15742 (GeneID 32276) | DRSC19708 | 8365 | 724 |
| oys (GeneID 36045) | DRSC05203 | 1.22e5 | 4599 |
| oys (GeneID 36045) | DRSC06751 | 2742 | 209 |
| Cerk (GeneID 40640) | DRSC12285 | 69787 | 3474 |
| CG10730 (GeneID 35291) | DRSC02102 | 95336 | 4631 |
| Or19a (GeneID 59214) | DRSC20684 | 1.40e5 | 6944 |
| CG15651 (GeneID 37375) | DRSC04242 | 1.00e5 | 4174 |
| Lsm11 (GeneID 36013) | DRSC06238 | 1.37e5 | 4776 |
| eRF3 (GeneID 34658) | DRSC03322 | 1.03e5 | 4331 |
| Blimp-1 (GeneID 38638) | DRSC10496 | 84290 | 3367 |
| CG17574 (GeneID 36415) | DRSC06681 | 1.02e5 | 4182 |
| GstO3 (GeneID 38972) | DRSC10710 | 1.02e5 | 3990 |
| CG34008 (GeneID 3885577) | DRSC13428 | 89497 | 2853 |
| CG6441 (GeneID 34029) | DRSC02957 | 1.56e5 | 5464 |
| lbe (GeneID 42542) | DRSC16985 | 1.44e5 | 7514 |
| CG12608 (GeneID 32463) | DRSC19472 | 7894 | 808 |
| wat (GeneID 43420) | DRSC14854 | 96581 | 4715 |
| CG31635 (GeneID 33928) | DRSC02273 | 1.72e5 | 5739 |
| CG31635 (GeneID 33928) | DRSC02274 | 1.39e5 | 5298 |
| asp (GeneID 42946) | DRSC16903 | 71706 | 3199 |
| CG5399 (GeneID 41900) | DRSC15791 | 1.30e5 | 6728 |
| mRpL55 (GeneID 42290) | DRSC14764 | 1.35e5 | 7130 |
| Blos3 (GeneID 5740347) | DRSC09573 | 50968 | 3330 |
| Nnf1a (GeneID 37325) | DRSC06394 | 91074 | 4197 |
| GstE2 (GeneID 37107) | DRSC06672 | 1.44e5 | 4564 |
| CG5854 (GeneID 42831) | DRSC15894 | 59800 | 4156 |
| Akt (GeneID 41957) | DRSC14108 | 81739 | 3922 |
| CG12071 (GeneID 43660) | DRSC14471 | 54989 | 4174 |
| CCKLR-17D3 (GeneID 32864) | DRSC20015 | 1.38e5 | 3333 |
| CCKLR-17D3 (GeneID 32864) | DRSC20017 | 1.31e5 | 7081 |
| Vha16-1 (GeneID 44307) | DRSC05020 | 1.13e5 | 4484 |
| Nubpl (GeneID 35452) | DRSC03725 | 74660 | 3081 |
| CG8187 (GeneID 36720) | DRSC07099 | 71432 | 3471 |
| MICAL-like (GeneID 39475) | DRSC09829 | 73103 | 3223 |
| Men-b (GeneID 43936) | DRSC16736 | 1.19e5 | 6014 |
| CG18327 (GeneID 36567) | DRSC06722 | 98437 | 4465 |
| CG4004 (GeneID 32226) | DRSC19791 | 8196 | 684 |
| CG4004 (GeneID 32226) | DRSC19882 | 1.53e5 | 6986 |
| Nlg2 (GeneID 33962) | DRSC03578 | 1.42e5 | 4722 |
| CG2993 (GeneID 40924) | DRSC14284 | 1.27e5 | 6001 |
| CG2993 (GeneID 40924) | DRSC15457 | 71697 | 3430 |
| CG11444 (GeneID 31388) | DRSC17784 | 1540 | 828 |
| CG15097 (GeneID 37172) | DRSC06526 | 83362 | 3817 |
| CG5539 (GeneID 37766) | DRSC04510 | 99233 | 4079 |
| CG12911 (GeneID 36081) | DRSC06226 | 1.46e5 | 5838 |
| HP1D3csd (GeneID 32906) | DRSC19548 | 1.53e5 | 5743 |
| obst-J (GeneID 40202) | DRSC10821 | 1.35e5 | 6893 |
| CG12213 (GeneID 41447) | DRSC14478 | 68196 | 2945 |
| CG14615 (GeneID 33129) | DRSC20627 | 1.40e5 | 6238 |
| Gr97a (GeneID 117338) | DRSC13802 | 82730 | 2332 |

Taken from above:
Entry for phol (GeneID 39095) [DRSC10367] under “E2F firefly, rep 1”: 74036
For “E2F firefly, rep 1”, CG2993 (GeneID 40924) [DRSC14284] shows 1.27e5
For “E2F firefly, rep 1”, CG11444 (GeneID 31388) [DRSC17784] shows 1540
Nadk2 (GeneID 35918) [DRSC07072], E2F firefly, rep 1 → 3101
Under “Renilla normaliser, rep 1”, CG6441 (GeneID 34029) [DRSC02957] has 5464
For “E2F firefly, rep 1”, sens (GeneID 45328) [DRSC09263] shows 79825
